Data source: PubChem BioAssay AID1259254 (NCATS, 2017)
Here is one part, drawn at random, of about 59,000 deposited reagents. About 1,550 of all reagents (2.6%) were called active. 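G2 share is only a proxy for re-replication; each gene was hit by three separate siRNAs, and active genes were retested.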 Entries without a mark were called inactive. The numbers tell different reagents against one gene apart. Further read-outs or replicates are left out here. Not given: the amount of reagent.

- Screen: 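Genome-wide screen for genes that prevent DNA re-replication in cancer cells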 (primary screen)
- System: human HCT116 colorectal cancer cells
- Reagent: single siRNA against human genes
- Time to read-out: 3 days
- Measurement: 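Nuclei stained with Hoechst and imaged; cell-cycle phase assigned by DNA content; G2 share scaled per plate, non-targeting siRNA 0%, GMNN siRNA 100%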
- Scale: G2 robust z-score: higher = more G2 cells, more excess DNA replication
- Rule for the call: 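An siRNA counts as active if its G2 robust z-score lies at least 5 MADs above the screen median; here such calls match roughly 38% of GMNN control or more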

no.	gene knocked down	reagent	G2 robust z-score
1	LOC440742	1	-0.485
2	LOC440742	2	0.653
3	LOC440742	3	0.347
4	ZBTB38 (zinc finger and BTB domain containing 38)	1	-0.261
5	ZBTB38 (zinc finger and BTB domain containing 38)	2	-0.0983
6	ZBTB38 (zinc finger and BTB domain containing 38)	3	-0.259
7	SLC27A5	1	-0.0131
8	SLC27A5	2	-0.929
9	SLC27A5	3	2.01
10	TERB2 (telomere repeat binding bouquet formation protein 2)	1	1.5
11	TERB2 (telomere repeat binding bouquet formation protein 2)	2	-0.171
12	TERB2 (telomere repeat binding bouquet formation protein 2)	3	-0.272
13	SNRPF (small nuclear ribonucleoprotein polypeptide F)	1	0.75
14	SNRPF (small nuclear ribonucleoprotein polypeptide F)	2	2.53
15	SNRPF (small nuclear ribonucleoprotein polypeptide F)	3	1.59
16	LMO3 (LIM domain only 3)	1	0.32
17	LMO3 (LIM domain only 3)	2	-1.18
18	LMO3 (LIM domain only 3)	3	-0.591
19	RABAC1 (Rab acceptor 1)	1	-1.05
20	RABAC1 (Rab acceptor 1)	2	-0.753
21	RABAC1 (Rab acceptor 1)	3	-0.365
22	ATP8B3 (ATPase phospholipid transporting 8B3)	1	1.99
23	ATP8B3 (ATPase phospholipid transporting 8B3)	2	0.171
24	ATP8B3 (ATPase phospholipid transporting 8B3)	3	-1.42
25	EXOC6 (exocyst complex component 6)	1	1.99
26	EXOC6 (exocyst complex component 6)	2	-0.377
27	EXOC6 (exocyst complex component 6)	3	0.306
28	TOM1 (target of myb1 membrane trafficking protein)	1	-0.697
29	TOM1 (target of myb1 membrane trafficking protein)	2	-0.707
30	TOM1 (target of myb1 membrane trafficking protein)	3	-0.00756
31	CLDN5 (claudin 5)	1	0.0673
32	CLDN5 (claudin 5)	2	-0.588
33	CLDN5 (claudin 5)	3	-0.0802
34	DPPA3 (developmental pluripotency associated 3)	1	1.1
35	DPPA3 (developmental pluripotency associated 3)	2	0.149
36	DPPA3 (developmental pluripotency associated 3)	3	0.087
37	CDC40 (cell division cycle 40)	1	0.769
38	CDC40 (cell division cycle 40)	2	1.6
39	CDC40 (cell division cycle 40)	3	3.81
40	RAMP3 (receptor activity modifying protein 3)	1	-1.09
41	RAMP3 (receptor activity modifying protein 3)	2	-1.6
42	RAMP3 (receptor activity modifying protein 3)	3	6.51 (active)

Records above whose target name begins with C or c (6):
gene knocked down	reagent	G2 robust z-score
CLDN5 (claudin 5)	1	0.0673
CLDN5 (claudin 5)	2	-0.588
CLDN5 (claudin 5)	3	-0.0802
CDC40 (cell division cycle 40)	1	0.769
CDC40 (cell division cycle 40)	2	1.6
CDC40 (cell division cycle 40)	3	3.81

The listing continues:
no.	gene knocked down	reagent	G2 robust z-score
43	ERAP1 (endoplasmic reticulum aminopeptidase 1)	1	-0.582
44	ERAP1 (endoplasmic reticulum aminopeptidase 1)	2	-1.31
45	ERAP1 (endoplasmic reticulum aminopeptidase 1)	3	0.898
46	PRSS56 (serine protease 56)	1	1.23
47	PRSS56 (serine protease 56)	2	0.136
48	PRSS56 (serine protease 56)	3	3.44
49	PRNP (prion protein (Kanno blood group))	1	-0.777
50	PRNP (prion protein (Kanno blood group))	2	-0.534
51	PRNP (prion protein (Kanno blood group))	3	-0.273
52	COL1A2 (collagen type I alpha 2 chain)	1	0.414
53	COL1A2 (collagen type I alpha 2 chain)	2	0.344
54	COL1A2 (collagen type I alpha 2 chain)	3	0.835
55	RWDD2B (RWD domain containing 2B)	1	-0.57
56	RWDD2B (RWD domain containing 2B)	2	-0.489
57	RWDD2B (RWD domain containing 2B)	3	0.0347
58	ASNS (asparagine synthetase (glutamine-hydrolyzing))	1	0.135
59	ASNS (asparagine synthetase (glutamine-hydrolyzing))	2	-0.692
60	ASNS (asparagine synthetase (glutamine-hydrolyzing))	3	-0.59
61	CKAP4 (cytoskeleton associated protein 4)	1	4.45
62	CKAP4 (cytoskeleton associated protein 4)	2	-0.188
63	CKAP4 (cytoskeleton associated protein 4)	3	-0.718
64	CKAP4 (cytoskeleton associated protein 4)	4	-0.513
65	CKAP4 (cytoskeleton associated protein 4)	5	-0.216
66	CKAP4 (cytoskeleton associated protein 4)	6	0.691
67	ISLR (immunoglobulin superfamily containing leucine rich repeat)	1	-0.511
68	ISLR (immunoglobulin superfamily containing leucine rich repeat)	2	6.31 (active)
69	ISLR (immunoglobulin superfamily containing leucine rich repeat)	3	-0.695
70	DNM2 (dynamin 2)	1	-1.35
71	DNM2 (dynamin 2)	2	1.42
72	DNM2 (dynamin 2)	3	1.85
73	PROCR (protein C receptor)	1	0.609
74	PROCR (protein C receptor)	2	-1.41
75	PROCR (protein C receptor)	3	-1.1
76	MVK (mevalonate kinase)	1	2.58
77	MVK (mevalonate kinase)	2	-1.54
78	MVK (mevalonate kinase)	3	2.08
79	AADACL4 (arylacetamide deacetylase like 4)	1	-0.17
80	AADACL4 (arylacetamide deacetylase like 4)	2	1.25
81	AADACL4 (arylacetamide deacetylase like 4)	3	-0.0184
82	TMEM252 (transmembrane protein 252)	1	-0.137
83	TMEM252 (transmembrane protein 252)	2	1.33
84	TMEM252 (transmembrane protein 252)	3	3.68
85	OR2V2 (olfactory receptor family 2 subfamily V member 2)	1	-0.823
86	OR2V2 (olfactory receptor family 2 subfamily V member 2)	2	2.26
87	OR2V2 (olfactory receptor family 2 subfamily V member 2)	3	1.94
